These are yes or no findings as the source states them, for the method shown. Some entries that bind do so weakly or less than the wild type.
Key:
[1] = biological target: T1, CD39 mutant 2A (human) (UniProt P49961); assay: flow cytometry, Hek-293T cells expressing mutant 2A
T1 sequence: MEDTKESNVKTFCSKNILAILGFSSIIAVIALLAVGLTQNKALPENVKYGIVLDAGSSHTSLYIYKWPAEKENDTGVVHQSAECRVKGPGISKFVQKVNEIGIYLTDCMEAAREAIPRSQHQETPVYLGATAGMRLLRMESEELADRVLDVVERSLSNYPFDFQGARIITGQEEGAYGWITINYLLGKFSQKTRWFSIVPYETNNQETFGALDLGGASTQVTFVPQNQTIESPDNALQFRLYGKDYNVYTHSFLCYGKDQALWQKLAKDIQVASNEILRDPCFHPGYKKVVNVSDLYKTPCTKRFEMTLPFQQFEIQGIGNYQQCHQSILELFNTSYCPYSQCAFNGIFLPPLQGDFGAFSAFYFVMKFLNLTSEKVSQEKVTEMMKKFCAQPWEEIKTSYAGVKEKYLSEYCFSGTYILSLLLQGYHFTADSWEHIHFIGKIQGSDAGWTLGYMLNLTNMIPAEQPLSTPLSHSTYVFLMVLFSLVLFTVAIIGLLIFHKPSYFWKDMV

[2] = biological target: T2, CD39 mutant 1 (human) (UniProt P49961); assay: flow cytometry, Hek-293T cells expressing mutant 1
T2 sequence: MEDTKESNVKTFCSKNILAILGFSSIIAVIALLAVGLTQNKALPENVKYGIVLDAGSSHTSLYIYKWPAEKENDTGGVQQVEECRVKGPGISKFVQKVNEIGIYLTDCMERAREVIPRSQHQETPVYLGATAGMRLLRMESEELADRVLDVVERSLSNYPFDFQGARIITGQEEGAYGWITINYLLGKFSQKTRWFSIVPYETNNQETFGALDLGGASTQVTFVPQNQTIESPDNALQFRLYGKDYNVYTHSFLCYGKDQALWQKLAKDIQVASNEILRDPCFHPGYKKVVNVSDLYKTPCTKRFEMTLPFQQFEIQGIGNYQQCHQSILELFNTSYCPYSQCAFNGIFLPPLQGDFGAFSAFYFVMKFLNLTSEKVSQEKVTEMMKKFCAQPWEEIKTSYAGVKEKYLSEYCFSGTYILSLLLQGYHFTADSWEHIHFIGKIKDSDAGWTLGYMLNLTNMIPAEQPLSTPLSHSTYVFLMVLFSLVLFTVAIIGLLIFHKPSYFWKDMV

[3] = biological target: T3, CD39 mutant 10A (human) (UniProt P49961); assay: flow cytometry, Hek-293T cells expressing mutant 10A
T3 sequence: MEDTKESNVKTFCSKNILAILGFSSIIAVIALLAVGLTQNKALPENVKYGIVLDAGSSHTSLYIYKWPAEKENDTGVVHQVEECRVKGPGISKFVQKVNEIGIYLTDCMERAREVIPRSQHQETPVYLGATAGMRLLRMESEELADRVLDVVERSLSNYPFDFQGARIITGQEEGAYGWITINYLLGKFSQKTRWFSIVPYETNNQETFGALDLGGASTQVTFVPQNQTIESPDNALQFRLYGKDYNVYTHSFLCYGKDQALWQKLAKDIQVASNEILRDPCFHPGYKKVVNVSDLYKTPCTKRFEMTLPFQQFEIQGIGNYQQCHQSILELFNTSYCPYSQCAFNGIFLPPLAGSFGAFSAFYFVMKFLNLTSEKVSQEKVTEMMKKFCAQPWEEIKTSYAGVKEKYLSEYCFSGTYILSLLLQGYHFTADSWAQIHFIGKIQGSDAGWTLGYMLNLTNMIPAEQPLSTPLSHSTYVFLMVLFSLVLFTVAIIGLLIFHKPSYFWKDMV

[4] = biological target: T4, CD39 mutant 7 (human) (UniProt P49961); assay: flow cytometry, Hek-293T cells expressing mutant 7
T4 sequence: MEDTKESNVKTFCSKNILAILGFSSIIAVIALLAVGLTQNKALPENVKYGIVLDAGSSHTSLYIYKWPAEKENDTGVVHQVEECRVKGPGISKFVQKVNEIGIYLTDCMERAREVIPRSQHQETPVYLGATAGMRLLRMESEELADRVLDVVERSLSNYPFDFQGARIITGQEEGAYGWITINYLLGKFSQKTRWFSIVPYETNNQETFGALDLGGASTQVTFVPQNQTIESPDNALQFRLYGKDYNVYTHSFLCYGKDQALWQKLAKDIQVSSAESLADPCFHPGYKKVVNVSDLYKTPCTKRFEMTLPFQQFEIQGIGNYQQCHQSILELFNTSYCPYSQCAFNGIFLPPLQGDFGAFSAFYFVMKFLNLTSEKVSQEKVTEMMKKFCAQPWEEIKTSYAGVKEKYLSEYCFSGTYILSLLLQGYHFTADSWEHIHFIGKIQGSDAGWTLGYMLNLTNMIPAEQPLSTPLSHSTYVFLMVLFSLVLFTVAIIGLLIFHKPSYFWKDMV

[5] = biological target: T5, CD39 mutant 17 (human) (UniProt P49961); assay: flow cytometry, Hek-293T cells expressing mutant 17
T5 sequence: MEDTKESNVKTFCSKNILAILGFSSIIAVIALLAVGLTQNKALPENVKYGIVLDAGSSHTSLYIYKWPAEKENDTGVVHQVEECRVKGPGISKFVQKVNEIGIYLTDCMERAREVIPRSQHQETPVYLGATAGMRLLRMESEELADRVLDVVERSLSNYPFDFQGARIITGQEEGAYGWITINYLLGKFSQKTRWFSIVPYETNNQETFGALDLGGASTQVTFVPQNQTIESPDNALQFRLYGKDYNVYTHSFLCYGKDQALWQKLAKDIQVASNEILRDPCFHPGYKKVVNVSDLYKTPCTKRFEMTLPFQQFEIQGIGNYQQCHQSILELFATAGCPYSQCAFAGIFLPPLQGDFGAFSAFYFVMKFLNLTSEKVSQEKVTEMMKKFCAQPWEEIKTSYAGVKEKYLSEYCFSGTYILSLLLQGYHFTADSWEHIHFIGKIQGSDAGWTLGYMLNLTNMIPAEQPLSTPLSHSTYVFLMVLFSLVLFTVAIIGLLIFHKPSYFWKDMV

Measured: binding

B1: antibody I-399 (antibody, V domains shown)
VH: PVQLQQPGAEVVMPGASVKLSCKASGYTFTSFWMNWMRQRPGQGLEWIGEIDPSDFYTNSNQRFKGKATLTVDKSSSTAYMQLSSLTSEDSAVYFCARGDFGWYFDVWGTGTSVTVSS
VL: EIVLTQSPTTMTSSPGEKITFTCSASSSINSNYLHWYQQKPGFSPKLLIYRTSNLASGVPTRFSGSGSGTSYSLTIGTMEAEDVATYYCQQGSSLPRTFGGGTKLEIK
binds: all assays above

— patent US20190218308A1
